Reference: patent US20120101083A1, “S1P1 AGONISTS COMPRISING A BICYCLIC N-CONTAINING RING” (GLAXO GROUP LIMITED, priority 2009, published 2012)
Some entries share one result that the patent states for a list of compounds.

Protein sequences, listed by entry. Tags and fused reporters are not part of them. Lines headed by an entry give the natural chain unless they say otherwise; changes in a name come on top.
UniProt Q99500: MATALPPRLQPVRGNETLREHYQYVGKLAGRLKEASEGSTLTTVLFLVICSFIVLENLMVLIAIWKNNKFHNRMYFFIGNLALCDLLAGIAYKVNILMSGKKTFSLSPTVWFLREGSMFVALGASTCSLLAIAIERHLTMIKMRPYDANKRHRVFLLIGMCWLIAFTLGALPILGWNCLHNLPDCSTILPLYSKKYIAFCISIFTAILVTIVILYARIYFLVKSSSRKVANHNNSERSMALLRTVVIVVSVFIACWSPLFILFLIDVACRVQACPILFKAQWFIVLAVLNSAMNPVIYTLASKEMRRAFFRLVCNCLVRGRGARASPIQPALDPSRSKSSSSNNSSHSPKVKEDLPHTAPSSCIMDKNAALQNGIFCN
UniProt P21453, whole entry: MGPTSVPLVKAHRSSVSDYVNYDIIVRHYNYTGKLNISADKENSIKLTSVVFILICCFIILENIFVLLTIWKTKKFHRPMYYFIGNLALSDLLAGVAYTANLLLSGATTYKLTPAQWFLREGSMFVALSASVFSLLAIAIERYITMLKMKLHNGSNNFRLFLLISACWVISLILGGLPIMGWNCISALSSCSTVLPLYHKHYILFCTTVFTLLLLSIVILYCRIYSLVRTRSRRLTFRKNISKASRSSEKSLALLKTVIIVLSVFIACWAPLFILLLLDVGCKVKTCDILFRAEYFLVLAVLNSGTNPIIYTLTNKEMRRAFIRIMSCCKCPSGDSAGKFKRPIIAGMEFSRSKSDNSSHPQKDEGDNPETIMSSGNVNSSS

What was measured:
[1] = molecular target: T1, S1P3 (S1P3 expressing RBL membranes) (Homo sapiens, UniProt Q99500); assay: S1P3 GTPγS assay; type: biochemical; conditions: first format, [35S]-GTPγS 0.3 nM
T1 construct: expressed in transfected cells; host or cells: RBL cells (membranes, crude or purified on a sucrose gradient)

[2] = molecular target: T2, S1P1 (PathHunter CHO-K1 EDG1 β-Arrestin cell line) (Homo sapiens, UniProt P21453); assay: S1P-1 β-Arrestin recruitment assay; type: cell-based; conditions: CHO-K1 EDG1 β-Arrestin cells, chemi-luminescence
T2 construct: host or cells: PathHunter CHO-K1 EDG1 β-Arrestin cell line
Method: S1P-1 β-Arrestin Recruitment Assay
β-Arrestin recruitment assays were carried out using the PathHunter CHO-K1 EDG1
β-Arrestin cell line (DiscoveRx Corporation) in a chemi-luminescence detection assay. This cell line stably expresses β-Arrestin 2 and S1P1 fused to complementing portions of β-galactosidase (‘EA’ and ‘pro-link’, respectively) which associate upon Arrestin recruitment to form functional β-galactosidase enzyme.
Cells were grown to 80% confluency in Growth Medium (F12 nutrient HAMS supplemented with 10% heat-inactivated USA FBS, 1% L-glutamax, 800 μg/ml Geneticin and 300 μg/ml Hygromycin). Cells were harvested from the flask using Enzyme Free Cell Dissociation Buffer (Gibco) and washed from flasks with Optimem solution (Gibco). Cells were then centrifuged at 1000 rpm for 2-3 min and resuspended in Assay Buffer (Prepared from Sigma kit H1387 supplemented with 20 ml/L HEPES, 4.7 ml/L NaHCO3, 0.1% pluronic acid F-68 solution, 0.1% BSA and adjusted to pH 7.4 using sodium hydroxide at 1×10^6 cells/ml. Cells were dispensed into assay plates containing compounds (100n1/well of a solution of test compound in 100% DMSO) at 1×10^4 cells/well and incubated at 37° C./5% CO2 for 90 min followed by 15 min at room temperature. 5 μl detection mix (1 part Galacton Star, 5 parts Emerald II, 19 parts Assay Buffer; DiscoveRx) were added per well and the plates incubated at room temperature for 60 min. Luminescence was quantified using a Viewlux plate reader.

Structure (SMILES)	pEC50 [1]	pEC50 [2]
COCCN1CCc2ccc(-c3noc(-c4ccc(OC(C)C)c(C#N)c4)n3)cc2CC1 [Example 21, 2-[(1-Methylethyl)oxy]-5-(3-{3-[2-(methyloxy)ethyl]-2,3,4,5-tetrahydro-1H-3-benzazepin-7-yl}-1,2,4-oxadiazol-5-yl)benzonitrile]	< 6	≥ 7
CNC(=O)CCN1CCc2c(ccc(-c3nnc(-c4ccc(OC(C)C)c(C#N)c4)s3)c2C)C1 [Example 11, 3-[6-(5-{3-Cyano-4-[(1-methylethyl)oxy]phenyl}-1,3,4-thiadiazol-2-yl)-5-methyl-3,4-dihydro-2(1H)-isoquinolinyl]-N-methylpropanamide]	< 6	≥ 7
Cc1c(-c2nnc(-c3ccc(OC(C)C)c(C#N)c3)s2)ccc2c1CCN(CC(O)CO)C2 (centres unmarked) [Example 18, 5-{5-[2-(2,3-Dihydroxypropyl)-5-methyl-1,2,3,4-tetrahydro-6-isoquinolinyl]-1,3,4-thiadiazol-2-yl}-2-[(1-methylethyl)oxy]benzonitrile]	< 6	≥ 7
CNC(=O)CCCN1CCc2c(ccc(-c3nnc(-c4ccc(OC(C)C)c(C#N)c4)s3)c2C)C1 [Example 14, 4-[6-(5-{3-Cyano-4-[(1-methylethyl)oxy]phenyl}-1,3,4-thiadiazol-2-yl)-5-methyl-3,4-dihydro-2(1H)-isoquinolinyl]-N-methylbutanamide]	< 6	≥ 7
Cc1c(-c2noc(-c3ccc(OC(C)C)c(C#N)c3)n2)ccc2c1CCN(CC(N)=O)C2 [Example 3, 2-[6-(5-{3-Cyano-4-[(1-methylethyl)oxy]phenyl}-1,2,4-oxadiazol-3-yl)-5-methyl-3,4-dihydro-2(1H)-isoquinolinyl]acetamide]	< 6	–
COCCN1CCc2c(ccc(-c3noc(-c4ccc(OC(C)C)c(C#N)c4)n3)c2C)C1 [Example 9, 2-[(1-Methylethyl)oxy]-5-(3-{5-methyl-2-[2-(methyloxy)ethyl]-1,2,3,4-tetrahydro-6-isoquinolinyl}-1,2,4-oxadiazol-5-yl)benzonitrile]	< 6	–
Cc1c(-c2nnc(-c3ccc(OC(C)C)c(C#N)c3)s2)ccc2c1CCN(CCC(N)=O)C2 [Example 10, 3-[6-(5-{3-Cyano-4-[(1-methylethyl)oxy]phenyl}-1,3,4-thiadiazol-2-yl)-5-methyl-3,4-dihydro-2(1H)-isoquinolinyl]propanamide]	< 6	–
Cc1c(-c2noc(-c3ccc(OC(C)C)c(C#N)c3)n2)ccc2c1CCN(CCCC(N)=O)C2 [Example 4, 4-[6-(5-{3-Cyano-4-[(1-methylethyl)oxy]phenyl}-1,2,4-oxadiazol-3-yl)-5-methyl-3,4-dihydro-2(1H)-isoquinolinyl]butanamide]	< 6	–
CC(C)Oc1ccc(-c2nc(-c3ccc4c(c3)CCN(CCC(N)=O)CC4)no2)cc1C#N [Example 22, 3-[7-(5-{3-Cyano-4-[(1-methylethyl)oxy]phenyl}-1,2,4-oxadiazol-3-yl)-1,2,4,5-tetrahydro-3H-3-benzazepin-3-yl]propanamide]	< 6	–
COCCN1CCc2ccc(-c3nnc(-c4ccc(OC(C)C)c(C#N)c4)s3)cc2CC1.Cl [Example 30, 2-[(1-Methylethyl)oxy]-5-(5-{3-[2-(methyloxy)ethyl]-2,3,4,5-tetrahydro-1H-3-benzazepin-7-yl}-1,3,4-thiadiazol-2-yl)benzonitrile hydrochloride]	< 6	–
CC(C)Oc1ccc(-c2nc(-c3ccc4c(c3)CCN(CCCC(N)=O)CC4)no2)cc1C#N [Example 25, 4-[7-(5-{3-Cyano-4-[(1-methylethyl)oxy]phenyl}-1,2,4-oxadiazol-3-yl)-1,2,4,5-tetrahydro-3H-3-benzazepin-3-yl]butanamide]	< 6	–
Cc1c(-c2noc(-c3ccc(OC(C)C)c(C#N)c3)n2)ccc2c1CCN(CCCO)C2 [Example 8, 5-{3-[2-(3-Hydroxypropyl)-5-methyl-1,2,3,4-tetrahydro-6-isoquinolinyl]-1,2,4-oxadiazol-5-yl}-2-[(1-methylethyl)oxy]benzonitrile]	< 6	–
CC(C)Oc1ccc(-c2nc(-c3ccc4c(c3)CCN(CCC(=O)N(C)C)CC4)no2)cc1C#N [Example 23, 3-[7-(5-{3-Cyano-4-[(1-methylethyl)oxy]phenyl}-1,2,4-oxadiazol-3-yl)-1,2,4,5-tetrahydro-3H-3-benzazepin-3-yl]-N,N-dimethylpropanamide]	< 6	–
CNC(=O)CCCN1CCc2c(ccc(-c3noc(-c4ccc(OC(C)C)c(C#N)c4)n3)c2C)C1 [Example 5, 4-[6-(5-{3-Cyano-4-[(1-methylethyl)oxy]phenyl}-1,2,4-oxadiazol-3-yl)-5-methyl-3,4-dihydro-2(1H)-isoquinolinyl]-N-methylbutanamide]	< 6	–
Cc1c(-c2noc(-c3ccc(OC(C)C)c(C#N)c3)n2)ccc2c1CCN(CCC(N)=O)C2 [Example 1, 3-[6-(5-{3-Cyano-4-[(1-methylethyl)oxy]phenyl}-1,2,4-oxadiazol-3-yl)-5-methyl-3,4-dihydro-2(1H)-isoquinolinyl]propanamide]	< 6	–
CNC(=O)CCCN1CCc2ccc(-c3noc(-c4ccc(OC(C)C)c(C#N)c4)n3)cc2CC1 [Example 24, 4-[7-(5-{3-Cyano-4-[(1-methylethyl)oxy]phenyl}-1,2,4-oxadiazol-3-yl)-1,2,4,5-tetrahydro-3H-3-benzazepin-3-yl]-N-methylbutanamide]	< 6	–
CC(C)Oc1ccc(-c2nc(-c3ccc4c(c3)CCN(CCCC(=O)N(C)C)CC4)no2)cc1C#N [Example 26, 4-[7-(5-{3-Cyano-4-[(1-methylethyl)oxy]phenyl}-1,2,4-oxadiazol-3-yl)-1,2,4,5-tetrahydro-3H-3-benzazepin-3-yl]-N,N-dimethylbutanamide]	< 6	–
Cc1c(-c2noc(-c3ccc(OC(C)C)c(C#N)c3)n2)ccc2c1CCN(CCC(=O)N(C)C)C2 [Example 2, 3-[6-(5-{3-Cyano-4-[(1-methylethyl)oxy]phenyl}-1,2,4-oxadiazol-3-yl)-5-methyl-3,4-dihydro-2(1H)-isoquinolinyl]-N,N-dimethylpropanamide]	< 6	–

Now from value to compound:

pEC50 [1]	pEC50 [2]	Structure (SMILES)
< 6	≥ 7	CC(C)Oc1ccc(-c2nc(-c3cccc4c3CCN(CC(O)CO)CC4)no2)cc1C#N.Cl (centres unmarked) [Example 35, 5-{3-[3-(2,3-Dihydroxypropyl)-2,3,4,5-tetrahydro-1H-3-benzazepin-6-yl]-1,2,4-oxadiazol-5-yl}-2-[(1-methylethyl)oxy]benzonitrile hydrochloride]
< 6	–	CC(C)Oc1ccc(-c2nc(-c3cccc4c3CCN(CC(N)=O)CC4)no2)cc1C#N [Example 31, 2-[6-(5-{3-Cyano-4-[(1-methylethyl)oxy]phenyl}-1,2,4-oxadiazol-3-yl)-1,2,4,5-tetrahydro-3H-3-benzazepin-3-yl]acetamide]
< 6	≥ 7	CC(C)Oc1ccc(-c2nc(-c3cccc4c3CCN(CCC(N)=O)CC4)no2)cc1C#N [Example 32, 3-[6-(5-{3-Cyano-4-[(1-methylethyl)oxy]phenyl}-1,2,4-oxadiazol-3-yl)-1,2,4,5-tetrahydro-3H-3-benzazepin-3-yl]propanamide]
< 6	–	COCCN1CCc2c(cccc2-c2nnc(-c3ccc(OC(C)C)c(C#N)c3)s2)C1 [Example 37, 2-[(1-Methylethyl)oxy]-5-(5-{2-[2-(methyloxy)ethyl]-1,2,3,4-tetrahydro-5-isoquinolinyl}-1,3,4-thiadiazol-2-yl)benzonitrile]
< 6	–	Cc1c(-c2noc(-c3ccc(OC(C)C)c(C#N)c3)n2)ccc2c1CCN(C(=O)CCCN)C2.Cl [Example 41, 5-{3-[2-(4-Aminobutanoyl)-5-methyl-1,2,3,4-tetrahydro-6-isoquinolinyl]-1,2,4-oxadiazol-5-yl}-2-[(1-methylethyl)oxy]benzonitrile hydrochloride]
< 6	–	Cc1c(-c2noc(-c3ccc(OC(C)C)c(C#N)c3)n2)ccc2c1CCN(C(=O)CN)C2.Cl [Example 42, 5-[3-(2-Glycyl-5-methyl-1,2,3,4-tetrahydro-6-isoquinolinyl)-1,2,4-oxadiazol-5-yl]-2-[(1-methylethyl)oxy]benzonitrile hydrochloride]
< 6	–	CC(C)Oc1ccc(-c2nnc(-c3cccc4c3CCN(CCCO)C4)s2)cc1C#N [Example 36, 5-{5-[2-(3-Hydroxypropyl)-1,2,3,4-tetrahydro-5-isoquinolinyl]-1,3,4-thiadiazol-2-yl}-2-[(1-methylethyl)oxy]benzonitrile]
< 6	–	Cc1c(-c2noc(-c3ccc(OC(C)C)c(C#N)c3)n2)ccc2c1CCN(C(=O)CCN)C2.Cl [Example 39, 5-[3-(2-β-Alanyl-5-methyl-1,2,3,4-tetrahydro-6-isoquinolinyl)-1,2,4-oxadiazol-5-yl]-2-[(1-methylethyl)oxy]benzonitrile hydrochloride]
